The list shows a part of the results. Shown are side measurements of this screen, not its main read-out; they come without a call. Most of these compounds were active or inconclusive in the main read-out, so they are no random draw. Words in brackets tell the shape of the fitted curve; partial curves, single points and poor fits give uncertain potencies.
Experiment: qHTS Assay for Modulators of Lamin A Splicing
Conditions: HeLa LMNA splicing GFP/RFP minigene ratio, 48 h
Text: NCGC Assay Overview: Hutchinson-Gilford Progeria Syndrome (HGPS) is a pediatric premature aging disease caused by a spontaneous mutation in the lamin A/C (LMNA) gene. The mutation activates a cryptic splice site in the LMNA pre-mRNA which results in production of a pre-lamin A protein that cannot be processed properly. The mutant protein accumulates in the nucleus and negatively affects numerous cellular functions. Correction of the splicing defect in HGPS patient cells using a targeted oligonucleotide (exo11) leads to reversal of the cellular disease phenotypes. To identify small molecule modulators of aberrant LMNA splicing, a homogenous assay was constructed in HeLa cells that used a GFP containing minigene to report on correction of aberrant splicing in lamin A and a RFP (DsRed2) to report on cell viability, uniformity and nonspecific effects on the assay signal. This assay was adapted to laser-scanning microplate cytometry (Acumen, TTP Labtech) where miniaturization of the assay to a 1,536-well plate format was possible. References: Bowen, W. P.; Wylie, P. G. Application of Laser-Scanning Fluorescence Microplate Cytometry in High Content Screening. Assay Drug Dev Technol 2006;4:209-221. Scaffidi P, Misteli T. Reversal of the cellular phenotype in the premature aging disease Hutchinson-Gilford progeria syndrome. Nat.
NCGC Assay Protocol Summary: Reagents/Controls: Stable clones expressing DsRed2 and lamin A-EGFP were generated by Cell and Molecular Technologies in S3 HeLa cells. HeLa cells were prepared for the assay when they were 70-90% confluent. The cells were counted and resuspended in Opti-MEM I (no phenol red; Gibco), 2% FBS, 1% penicillin/ streptomycin (Gibco) at concentration of 120 cells/uL concentration. The suspension was passed through a Falcon basket filter with pore size 40um (Beckton Dickson). Control titrations: column […] 1536-well plate contained a sixteen point titration (1:2 dilutions) in duplicate of ancitabine (Sigma: A8598) beginning at 40 uM final concentration. Column 2 contained a sixteen point titration (1:2 dilutions) of cycloheximide beginning at 1.4 mM final concentration. Column 3 contained ancitabine at 40 uM and column 4 contained was the vehicle control (0.5% DMSO final concentration). Assay Steps: 5 uL of HeLa cells were plated in Aurora LoBase black clear bottom (cyclic-olefin polymer) 1536-well plates at a final density of 600 cells/well. Controls and library compounds were added with a 1536-well pin array using the Kalypsys pin-tool. The plates were then incubated for 48 hrs in a cell-culture incubator (37 °C; 5% CO2, 98% humidity). Following incubation the plates were read on the Acumen Explorer using the 488 nm laser. Data was collected on objects between 10 and 100 um in size. Cell objects were defined by a 15 um width x 10 um depth filter. The ratio of the total object intensity in PMT1 (500-530 nm emission; GFP) over PMT3 (575-640 nm emission; RFP) was calculated for analysis. Keywords: NIH Roadmap, MLSCN, MLI, MLSMR, qHTS, NCGC, lamin A, Progeria, RNA splicing.

[1] = measured here: GFP splicing reporter channel
[2] = measured here: RFP viability control channel

SMILES | AC50 [1] | AC50 [2]
O=C(NC(Cc1c[nH]c2ccccc12)C(=O)N/N=C/c1ccc(Cl)cc1)c1cccs1 (centres undefined) | 0.00355 µM [falling, full curve, poor fit] | –
O=C(NNc1cc(N2CCOCC2)nc(N2CCOCC2)n1)c1ccc([N+](=O)[O-])cc1 | – | 2.82 µM [falling, partial curve, poor fit]
Cc1cccc(N2CCN(C(=O)Cc3ccc(-n4c(=O)[nH]c5ccsc5c4=O)cc3)CC2)c1C | – | 12.6 µM [rising, single point]
Cc1ccccc1OCC(=O)Nc1ccc2nc(SCc3ccccc3)sc2c1 | 1.58 µM [rising, full curve] | –
Cc1nn(-c2ccccc2)c2sc(-c3n[nH]c(=S)o3)cc12 | – | 11.2 µM [rising, partial curve]
COc1nc(Nc2cccc(C)c2)nc(N2CCCCC2)n1 | 3.55 µM [rising, partial curve, poor fit] | 11.2 µM [rising, partial curve]
O=C(Cc1csc(Nc2nc(=S)[nH]c3ccccc23)n1)N1CCN(c2cccc(C(F)(F)F)c2)CC1 | 4.47 µM [falling, partial curve] | 7.94 µM [falling, partial curve]
CCN(CC)S(=O)(=O)c1ccc(-c2ccc(S(=O)(=O)N(CC)CC)cc2)cc1 | – | 7.94 µM [rising, partial curve]
C=CCNC(=O)C(=O)NCCOc1ccccc1Cl | – | 17.8 µM [rising, single point]
O=C(c1cccc(NS(=O)(=O)c2ccc(F)c(F)c2)c1)N1CCN(C(c2ccccc2)c2ccccc2)CC1 | – | 2.82 µM [rising, partial curve]
COc1ccc(CCNC(=O)CSCc2c(F)cccc2Cl)cc1OC | – | 4.47 µM [rising, partial curve, poor fit]
CC1(C)CC(C(CC(=O)O)c2ccccc2)CCO1 (centres undefined) | 0.01 µM [rising, full curve, poor fit] | –
CC(=O)Nc1nc(-c2ccccc2)nc(-c2ccccc2OC(C)=O)n1 | 14.1 µM [rising, single point] | 11.2 µM [rising, partial curve]
Cc1ccccc1-c1nnc(SCC(=O)N(C)C2CCCCC2)o1 | 0.00447 µM [rising, full curve, poor fit] | –
COc1ccc(-c2noc(-c3ccccc3C(=O)Nc3cccc(OC)c3)n2)cc1 | – | 0.00447 µM [rising, full curve, poor fit]
CCN(C(=O)Cn1cnc2onc(-c3ccc(F)cc3)c2c1=O)c1cc(C)ccc1C | 5.62 µM [falling, partial curve] | –

Source: PubChem BioAssay AID1487 (National Center for Advancing Translational Sciences (NCATS), 2009)
